Results on one substance are retold here after article PMC3397946, “Identification and Characterization of the Cognate Anti-Sigma Factor and Specific Promoter Elements of a T. tengcongensis ECF Sigma Factor”.

Chains of the proteins cited; added tags and fusions are not shown. Lines headed by an entry give the natural chain unless they say otherwise; changes in a name come on top.
UniProt Q8RCT7: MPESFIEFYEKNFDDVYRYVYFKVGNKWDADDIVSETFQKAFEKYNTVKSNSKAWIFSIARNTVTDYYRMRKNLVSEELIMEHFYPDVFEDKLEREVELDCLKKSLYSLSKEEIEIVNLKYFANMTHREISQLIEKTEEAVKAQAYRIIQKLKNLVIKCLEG
UniProt Q8RCT8: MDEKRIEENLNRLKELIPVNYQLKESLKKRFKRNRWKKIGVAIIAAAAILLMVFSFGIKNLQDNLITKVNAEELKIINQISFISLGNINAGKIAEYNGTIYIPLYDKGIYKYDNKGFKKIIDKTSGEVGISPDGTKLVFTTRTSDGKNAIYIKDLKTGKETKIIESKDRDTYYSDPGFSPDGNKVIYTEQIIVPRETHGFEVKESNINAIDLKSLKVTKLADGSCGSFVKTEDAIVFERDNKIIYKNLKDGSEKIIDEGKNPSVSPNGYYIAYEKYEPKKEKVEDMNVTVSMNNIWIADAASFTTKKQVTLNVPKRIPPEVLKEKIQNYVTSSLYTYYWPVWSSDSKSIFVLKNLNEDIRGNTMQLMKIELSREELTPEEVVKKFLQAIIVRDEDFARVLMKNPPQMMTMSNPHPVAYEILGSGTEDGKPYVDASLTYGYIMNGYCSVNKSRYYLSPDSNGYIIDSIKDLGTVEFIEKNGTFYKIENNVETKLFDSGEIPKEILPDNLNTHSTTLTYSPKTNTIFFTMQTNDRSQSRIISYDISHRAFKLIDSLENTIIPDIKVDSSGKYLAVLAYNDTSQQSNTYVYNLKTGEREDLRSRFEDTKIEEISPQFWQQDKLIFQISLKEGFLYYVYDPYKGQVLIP

The experiment deals with His-tagged Tt-RpoE1 (ECF sigma factor of T. tengcongensis) (Thermoanaerobacter tengcongensis) (UniProt Q8RCT7). Kind of experiment: native gel or EMSA; supershift of the complex of Tt-RpoE1 with 32P-labelled fork-junction promoter DNA (T+1/B-10); each protein 5 µM (equimolar); 25°C, 20 min; 50 mM Tris-HCl pH 8.0, 10 mM MgAc2, 30 mM NaCl, 1 mM DTT, 5% glycerol, 30 µg/ml BSA, 0.5 mM EDTA, poly(dI-dC); native 5% polyacrylamide gel; both purified. For orientation: In EMSA bound probe runs differently from free probe, usually more slowly.

These are yes or no findings as the source states them, for the method shown. Binding can be weak; no strength is given.

For the substance “His-tagged Tt-TolB (anti-sigma factor of Tt-RpoE1) (from UniProt Q8RCT8)”, the binding result is “binds”.
